From patent publication US20230024461A1, “METHODS FOR DUAL DNA/PROTEIN TAGGING OF OPEN CHROMATIN” (Beth Israel Deaconess Medical Center, Inc., priority 2019, published 2023)

Tested on: HEK293T nuclei
Experiment: iDAPT-MS quantitative mass spectrometry
Design: species or system human
Details: FDR threshold of 5%

B1: TP5: Tn5 transposase-GSGAGA linker-APEX2 peroxidase fusion, C-terminal FLAG; amino acid SEQ ID NO: 31 (protein)
chain: MITSALHRAADWAKSVFSSAALGDPRRTARLVNVAAQLAKYSGKSITISSEGSKAMQEGAYRFIRNPNVSAEAIRKAGAMQTVKLAQEFPELLAIEDTTSLSYRHQVAEELGKLGSIQDKSRGWWVHSVLLLEATTFRTVGLLHQEWWMRPDDPADADEKESGKWLAAAATSRLRMGSMMSNVIAVCDREADIHAYLQDKLAHNERFVVRSKHPRKDVESGLYLYDHLKNQPELGGYQISIPQKGVVDKRGKRKNRPARKASLSLRSGRITLKQGNITLNAVLAEEINPPKGETPLKWLLLTSEPVESLAQALRVIDIYTHRWRIEEFHKAWKTGAGAERQRMEEPDNLERMVSILSFVAVRLLQLRESFTPPQALRAQGLLKEAEHVESQSAETVLTPDECQLLGYLDKGKRKRKEKAGSLQWAYMAIARLGGFMDSKRTGIASWGALWEGWEALQSKLDGFLAAKDLMAQGIKIGSGAGAGKSYPTVSADYQDAVEKAKKKLRGFIAEKRCAPLMLRLAFHSAGTFDKGTKTGGPFGTIKHPAELAHSANNGLDIAVRLLEPLKAEFPILSYADFYQLAGVVAVEVTGGPKVPFHPGREDKPEPPPEGRLPDPTKGSDHLRDVFGKAMGLTDQDIVALSGGHTIGAAHKERSGFEGPWTSNPLIFDNSYFTELLSGEKEGLLQLPSDKALLSDPVFRPLVDKYAADEDAFFADYAEAHQKLSELGFADADYKDDDDK
modifications: C-terminal FLAG
significant proteins enriched versus APEX2 alone: 1,395 proteins
